Assay results taken from PubChem BioAssay AID2685 (National Center for Advancing Translational Sciences (NCATS), 2010).
This is one part of the list. These are further read-outs of the screen, such as a control signal, another cell line or another target. No call is given for them. The list favours compounds with an active or inconclusive main result. Words in brackets tell the shape of the fitted curve; partial curves, single points and poor fits give uncertain potencies.

Assay: qHTS Assay for Lipid Storage Modulators in Drosophila S3 Cells;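 on cell number change: cells counted by Cell Tracker Red CMTPX staining in the red channel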
Conditions: BODIPY lipid droplet fluorescence, 18-24 h; for cell number change: measured here: cell count max response, cells fed with added oleic acid
How it was run: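 Drosophila S3 cells loaded with oleic acid (400 uM, as added) and compounds at several concentrations; lipid droplets imaged by 488-nm laser-scanning cytometry, 500–530 nm intensity and object ratio to cell channel. Percent activity normalized to 20 uM Triacsin C.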

[1] = measured here: cell number channel AC50, cells fed with added oleic acid
[2] = measured here: lipid fluorescence (Fed channel) AC50, cells fed with added oleic acid

Structure (SMILES) | cell number change [%] | AC50 [1] | AC50 [2]
CC(C)NCCCCOc1ccccc1-c1ccccc1 | -5.93 | 0.092 µM [rising, full curve, poor fit] | –
O=C(CCCCC(=O)Nc1ccccc1Cl)Nc1ccccc1Cl | 17.5 | – | 32.6 µM [rising, partial curve, poor fit]
CCOC(=O)/C(=C/c1ccc(OC)cc1)NC(=O)c1ccco1 | -25.1 | 2.31 µM [falling, full curve, poor fit] | –
O=C(CN1CCN(Cc2ccccc2)CC1)N/N=C/C=C/c1ccco1 | 20 | – | 4.11 µM [rising, single point]
CSc1ccccc1OCc1cc(C(=O)N2CCC[C@H]2C(N)=O)no1 | 10.7 | – | 29.1 µM [falling, single point]
CN(C)NC1=CC(=[N+]2CCCC2)CC(C)(C)C1 | 0.146 | – | 0.206 µM [falling, full curve]
COc1ccc(C)cc1NS(=O)(=O)c1ccc2c(c1)N(C)CCO2 | – | – | 18.4 µM [falling, partial curve]
O=C(Cn1nnc(-c2ccccc2)n1)Nc1cccc(S(=O)(=O)N2CCCC2)c1 | 70.4 | 14.6 µM [rising, partial curve] | –
CC(C)C(=O)Nc1cccc(C(=O)Nc2nccs2)c1 | 3.57 | – | 0.731 µM [rising, full curve, poor fit]
CN(C)C(=O)c1c2c(nc3ccccc13)-c1ccccc1CC2 | -16 | – | 0.366 µM [falling, full curve, poor fit]
Cc1c(O)ccc2c(CC(=O)N[C@@H](Cc3c[nH]c4ccccc34)C(=O)O)cc(=O)oc12 | -0.901 | – | –
CC(Oc1cc2oc(=O)c3c(c2cc1Cl)CCC3)C(=O)NC1CC(C)(C)NC(C)(C)C1 (stereo not drawn) | 19.5 | – | 20.6 µM [rising, partial curve]
c1ccc(CCc2ccccc2-c2nc(-c3cccnc3)no2)cc1 | – | 1.64 µM [rising, partial curve, poor fit] | 0.411 µM [rising, full curve]
Cc1cccc(Cn2ccc(N)n2)c1 | 22.3 | – | –
O=C(O)c1ccc(COc2ccccc2/C=C2\NC(=O)N(Cc3ccccc3F)C2=O)cc1 | -19.9 | – | 0.082 µM [falling, full curve, poor fit]
COC(=O)c1ccccc1NC(=O)CNc1ccc(F)c(S(=O)(=O)N2CCOCC2)c1 | – | – | 1.3 µM [falling, full curve]

Reformatted as labelled records: 2 of the compounds above.
O=C(CN1CCN(Cc2ccccc2)CC1)N/N=C/C=C/c1ccco1
  cell number change [%]: 20
  AC50 [2]: 4.11 µM [rising, single point]
c1ccc(CCc2ccccc2-c2nc(-c3cccnc3)no2)cc1
  AC50 [1]: 1.64 µM [rising, partial curve, poor fit]
  AC50 [2]: 0.411 µM [rising, full curve]

Later entries.

Structure (SMILES) | cell number change [%] | AC50 [1] | AC50 [2]
O=[N+]([O-])c1ccccc1/C=C/c1ccc2ccccc2n1 | -1.75 | – | 4.61 µM [falling, single point]
Cc1cccc(C(C(=O)NCc2ccc(F)cc2)N(C(=O)c2csnn2)C2CC2)c1 (stereo not drawn) | 14.2 | – | 11.6 µM [rising, single point]
O=C(Nc1ccc2c(c1)OCO2)C1CC1 | -5.66 | – | 0.517 µM [rising, partial curve, poor fit]
COc1ccccc1C(=O)COC(=O)c1nc(Cl)ccc1Cl | 31.7 | 0.058 µM [rising, full curve, poor fit] | –
Cc1ccc(NC(=O)CSc2nnc(C)c(=O)n2N)cc1 | -28.4 | 4.11 µM [falling, full curve, poor fit] | 3.66 µM [falling, full curve]
O=C(NC(=S)Nc1ccc(N2CCOCC2)cc1)c1cccc(Cl)c1Cl | 2.59 | – | 0.103 µM [rising, full curve, poor fit]
COC(=O)c1ccc(CSc2nnc3ccccn23)o1 | 1.56 | – | –
Cc1cccc(C(=O)NC2CC3CCCC(C2)N3S(=O)(=O)c2ccccc2)c1 (stereo not drawn) | 85.2 | 1.64 µM [rising, full curve] | –
CC(C)NC(=O)Cn1c(=O)cnc2ccccc21 | -2.36 | – | 0.103 µM [falling, full curve, poor fit]
CCN(CC)c1ccc(/C=C(\C#N)C(=O)c2ccc(Br)cc2)cc1 | – | – | 29.1 µM [falling, single point]
COc1cccc(C(=O)NCCS(=O)(=O)N(C)C2CCCCC2)c1 | -2.51 | – | 29.1 µM [falling, single point]
CC(C)CCNc1nc(N)c([N+](=O)[O-])c(N2CCCCCC2)n1 | 5.41 | 0.92 µM [rising, full curve, poor fit] | –
c1cc(-c2nc3cc(Cc4ccc5oc(-c6ccncc6)nc5c4)ccc3o2)ccn1 | 9.92 | – | 2.91 µM [rising, partial curve, poor fit]
COCCNC(=O)c1ccc(CSc2nc3ccccc3s2)cc1 | -32.7 | 35.5 µM [falling, single point] | –
Cc1c(S(=O)(=O)N2CCCC2)c(=O)n(C)c(=O)n1C | -55 | 13 µM [falling, partial curve, poor fit] | 25.9 µM [falling, partial curve]
